Experimental data from PubChem BioAssay AID493014 (National Center for Advancing Translational Sciences (NCATS), 2011).
Among all 340,000 compounds or so, about 170 (0.05%) were called active. This list was built around the results that the source calls inconclusive (neither active nor inactive); the mix of calls is not that of the screen. Calls come from the whole dose curve; as a rule, active = well fitted inhibition curve with a large enough effect in the signal ratio, with a control signal flat (not every such curve was filed as active); inconclusive = small, poorly fitted or top-dose-only effect, or effect the other way, or a change in a side signal; inactive = flat fitted curve, though single readings scatter; the % refers to the signal ratio. Potencies beside an inconclusive call are fits to weak or partial responses and may not hold up.

Assay: qHTS Assay to Find Inhibitors of Chronic Active B-Cell Receptor Signaling;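 for activity change, negative = inhibition: plate controls were basal doxycycline-induced cells for no effect and cells given 10 µM MG132 for full effect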
Settings: ABC-DLBCL IkBa-CBG/CBR reporter, luminescence ratio (green luciferase fused to IkBa over red control in TMD8 lymphoma cells), 4 h; activity change, negative = inhibition: at 46.1 µM (top of the series)
In short: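 Compounds up to 46 uM were incubated four hours with TMD8 cells whose green CBG68 luciferase is fused to IkappaBalpha; red CBR luminescence normalised the signal, and concentration-effect curves were fitted to fusion, red and ratio data.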
Potency is the fitted concentration of half-maximal effect.

Structure (SMILES) | Potency | activity change, negative = inhibition
COc1ccccc1NC(=O)N1c2ccc(F)cc2CCC1C (stereo not drawn) | inconclusive: 29.1 µM [falling, single point] | 
CC(=O)Cn1nnc2sc(-c3ccccc3)cc2c1=O | inconclusive: 22.4 µM [falling, single point] | 
CCN(CC)CC(=O)Nc1ccc2c(c1)Nc1ccccc1CC2 |  | inconclusive: -15.9%
O=C(O)c1ccc(N=NN2CCCCCC2)cc1 | inconclusive: 9.2 µM [falling, partial curve] | 
Cc1cc(NC(=O)CSc2cn(CCNC(=O)c3ccc(Cl)cc3)c3ccccc23)no1 | inconclusive: 4.61 µM [falling, partial curve, poor fit] | 
Cc1ccccc1C(=O)N/N=C/c1ccc([N+](=O)[O-])s1 | inconclusive: 20.6 µM [falling, partial curve] | 
CN(CC(=O)Nc1ccc(F)c(F)c1F)C(=O)C1CCC1 |  | inconclusive: 10.1%
O=C(c1ccco1)c1cn(CC(=O)N2CCCc3ccccc32)c2ccccc12 |  | inconclusive: 6.05%
COc1cc(OC)c2c(c1)OC(=O)CC2c1ccc(C)cc1 (stereo not drawn) |  | inconclusive: 8.01%
CCOC(=O)C1=C(C)OC(N)=C(C#N)C1c1c(C)nn(-c2ccc(C)cc2)c1Cl (stereo not drawn) |  | inconclusive: -16.7%
COC(CN(C)C(=O)C1CCCN(S(=O)(=O)c2ccc3c(c2)oc(=O)n3C)C1)OC (stereo not drawn) |  | inactive: 7.83%
Cc1cc(C(=O)NCCc2ccc(Cl)cc2)no1 |  | inconclusive: 1.36%
Cc1cc(C)nc(NC(N)=NC(C)c2ccccc2)n1 (stereo not drawn) |  | inconclusive: -15.1%
COc1ccc(C2=NOC3(CC(=O)N(c4ccc(F)cc4)C3=O)C2)c(OC)c1 (stereo not drawn) |  | inconclusive: 0.217%
COc1cc(C2NC(=O)NC(C)=C2C(=O)OC2CCC(C)CC2)ccc1O (stereo not drawn) | inconclusive: 17.8 µM [falling, single point] | 
O=C1CCC(=O)N1c1nc2nc(-c3ccccc3)cc(=O)n2[nH]1 | inconclusive: 0.00411 µM [rising, full curve, poor fit] | 
CCN1CCS/C1=C\C=C\C1=[N+](CC)CCS1 | inconclusive: 35.5 µM [falling, single point] | 
O=C(COC(=O)CNC(=O)c1ccccc1)Nc1nnc(-c2ccccc2)o1 | inconclusive: 23.1 µM [falling, single point] | 
COc1cccc(-c2noc(C3CCCN(C(=O)CC(C)(C)C)C3)n2)c1 (stereo not drawn) | inconclusive: 35.5 µM [falling, single point] | 
Cc1ccccc1CSc1nc2nc(C)c(Cc3ccccc3)c(C)n2n1 |  | inconclusive: 17.9%
CCN1C(=O)[C@H]2[C@@H](c3ccc(-c4cccc(Cl)c4)cc3)N[C@@](Cc3ccccc3)(C(=O)OC)[C@H]2C1=O |  | inconclusive: 1.43%
Cc1ccc(N(Cc2ccc(C(=O)Nc3ccccc3C(=O)NCc3ccco3)cc2)S(C)(=O)=O)cc1C | inconclusive: 0.164 µM [rising, full curve, poor fit] | 
COc1cccc(NC(=O)c2oc3ccccc3c2NC(=O)C(C)(C)C)c1 |  | inconclusive: 5.49%
CC(=O)Oc1ccc(Oc2ccc(-c3noc(C)n3)cc2)cc1 |  | inactive: 2.13%
COc1ccc(C(=O)NNc2cc(C)nc(NNC(=O)c3ccc(OC)cc3)n2)cc1 | inconclusive: 35.5 µM [falling, partial curve, poor fit] | 

Structure (SMILES) | Potency | activity change, negative = inhibition
O=C(Nc1cccc(Cl)c1)Nc1ccnc(-c2cccnc2)n1 |  | inconclusive: 1.22%
COc1ccc(S(=O)(=O)N2CCN(C3CC4CCC3C4)CC2)cc1 (stereo not drawn) |  | inconclusive: -12.5%
CCC(=O)Nc1ccc2nc(C3CC3)n(Cc3ccccc3)c(=O)c2c1 |  | inactive: -9.64%
Nc1nc(SCc2ccc([N+](=O)[O-])cc2)c2ncn(C3OC(CO)C(O)C3O)c2n1 (stereo not drawn) |  | inconclusive: -15.4%
Cc1ccn2cc(CSc3ccccc3)nc2c1 | inconclusive: 6.51 µM [falling, single point] | 
Cc1noc(/C=C/c2cccnc2)c1[N+](=O)[O-] | inconclusive: 22.4 µM [falling, single point] | 
O=C(Nc1ccc(Br)cn1)C1CCCN1S(=O)(=O)c1ccccc1 (stereo not drawn) | inconclusive: 10 µM [falling, partial curve, poor fit] | 
COc1ccc2oc(C(=O)OC(C)C(=O)Nc3ccc(N4CCOCC4)cc3)c(C)c2c1 (stereo not drawn) |  | inconclusive: 6.02%
COc1ccc(CC(=O)NCc2ccc(-n3cccc3)cc2)cc1OC | inconclusive: 11.2 µM [falling, partial curve, poor fit] | 
CC(C)C(=O)Nc1ccc(N2CCCC2)cc1 |  | inconclusive: -5.46%
Cc1ccccc1OCCSc1nnc(-c2ccncc2)n1C |  | inconclusive: -10.1%
O=C(Nc1cc(Cl)cc(Cl)c1)c1cccc(OC(F)F)c1 |  | inconclusive: -24%
O=C(N/N=C/c1cn(-c2ccccc2)nc1-c1ccc(F)cc1)c1ccc2c(c1)OCO2 | inconclusive: 15.8 µM [falling, partial curve] | 
CCN(C(=O)COC(=O)c1ccccc1SCC(=O)NC1CCCCCCC1)C1CCS(=O)(=O)C1 (stereo not drawn) | inconclusive: 18.4 µM [falling, partial curve] | 
Cc1cc(=O)[nH]c(SCC(=O)Nc2nc(-c3ccccc3)cs2)n1 |  | inconclusive: -1.59%
O=C(O)c1ccccc1-c1ccccc1C(=O)Nc1ccc2c(c1)[nH]c(=O)c1ccccc12 | inconclusive: 11.2 µM [rising, partial curve, poor fit] | 
CN(CC(=O)Nc1ccc(Cl)c(C(F)(F)F)c1)C(=O)CCN1C(=O)C2CC=CCC2C1=O (stereo not drawn) |  | inactive: 0.0408%
CC1(C)C(O)=C(c2nc3ccccc3[nH]2)C(=N)N1c1ccccc1 | inconclusive: 11.2 µM [falling, partial curve, poor fit] | 
CCOc1ccc(OCCn2c(=S)[nH]c3c(N)ncnc32)cc1 |  | inconclusive: 6.04%
Cc1[nH]nc2c1C(c1cc(Br)cs1)C(C#N)=C(N)O2 (stereo not drawn) | inconclusive: 3.26 µM [falling, single point] | 
O=C(OCc1ccccn1)c1ccc(COc2ccccc2Cl)o1 | inconclusive: 7.08 µM [falling, partial curve, poor fit] | 
Clc1ccc(-c2csc(N3CCCCCC3)n2)cc1 | inconclusive: 2.51 µM [falling, full curve, poor fit] | 
Cc1cccc(N(CC(=O)Nc2ccc(F)cc2)S(C)(=O)=O)c1 |  | inconclusive: -1.26%
COCCCNC(=O)c1ccccc1NS(C)(=O)=O |  | inconclusive: 0.876%
COc1ccc(/C=C2\C(=O)OCc3cc(OC)c(OC)cc32)cc1OC | inconclusive: 23.1 µM [falling, partial curve, poor fit] | 

As a short view, some entries already given.
Structure (SMILES) | Potency | activity change, negative = inhibition
Cc1cc(=O)[nH]c(SCC(=O)Nc2nc(-c3ccccc3)cs2)n1 |  | inconclusive: -1.59%
O=C(O)c1ccccc1-c1ccccc1C(=O)Nc1ccc2c(c1)[nH]c(=O)c1ccccc12 | inconclusive: 11.2 µM [rising, partial curve, poor fit] | 
CN(CC(=O)Nc1ccc(Cl)c(C(F)(F)F)c1)C(=O)CCN1C(=O)C2CC=CCC2C1=O (stereo not drawn) |  | inactive: 0.0408%

Remaining list, next part

Structure (SMILES) | Potency | activity change, negative = inhibition
CC1(N2CCOCC2)CC2(O)C(=[N+]1[O-])CCc1c2no[n+]1[O-] (stereo not drawn) |  | inconclusive: -1.23%
Cc1ccc(SCc2nc3ccccc3n2CC(=O)Nc2ccc(Cl)cc2)cc1 |  | inactive: 12.7%
COc1cccc(NC(=O)C/C(C)=N/NC(=O)c2ccccc2Cl)c1 | inconclusive: 31.6 µM [falling, partial curve] | 
CCOC(=O)C1CCN(C(=S)NC(=O)c2cccs2)CC1 |  | inactive: 8.99%
Nn1c(SCC(=O)Nc2nc3ccccc3s2)nncc1=O |  | inactive: -1.08%
CCC(=O)NC(Cc1ccccc1)c1ccc2c(c1)OCCCO2 (stereo not drawn) |  | inconclusive: 5.66%
Cc1nc(Nc2cc(F)ccc2C)c2nnn(Cc3ccccc3)c2n1 |  | inconclusive: 0.407%
CC(=O)Nc1ccc(S(=O)(=O)Nc2cccc(S(=O)(=O)N(C)c3ccccc3)c2)cc1 |  | inconclusive: 0.28%
CCn1c(SCC(=O)Nc2nc(C)c(C(=O)OC)s2)nnc1C(C)C |  | inconclusive: -0.889%
Cc1[nH]n(-c2ccccc2)c(=O)c1/C=N/N1CCOCC1 |  | inconclusive: 14.3%
COc1ccccc1-c1cc(C(=O)NCc2ccco2)no1 | inconclusive: 4.47 µM [rising, full curve, poor fit] | 
COc1ccccc1N1C(=O)C2ON(c3ccccc3)C(c3ccc(N(C)C)cc3)C2C1=O (stereo not drawn) | inconclusive: 23.1 µM [falling, partial curve, poor fit] | 
O=C(CCN1C(=O)/C(=C/c2ccc(F)cc2)SC1=S)NC1CCS(=O)(=O)C1 (stereo not drawn) |  | inconclusive: -13.1%
COC(=O)c1cnc2ccccc2n1 |  | inconclusive: 9.62%
Cc1ccc(/C=C/C(=O)Nc2ccc(S(=O)(=O)Nc3onc(C)c3C)cc2)cc1 |  | inconclusive: -9.24%
COc1ccc(C(=O)NC(=S)NNC(=O)CNC(=O)C2CCCCC2)cc1 | inconclusive: 3.98 µM [rising, single point] | 
CN(CCC#N)c1ccc(/C=C(\C#N)c2ccccn2)cc1 | inconclusive: 29.1 µM [falling, single point] | 
O=C(CSc1cccc[n+]1[O-])C12CC3CC(CC(C3)C1)C2 |  | inconclusive: -15.4%
CCc1ccc(-c2cc(C(F)(F)F)n3nc(C(=O)Nc4c(C)nn(Cc5ccccc5C)c4C)cc3n2)s1 |  | inactive: -1.23%
COc1ccc2c(c1)CCc1c(C(=O)NCc3cccnc3)noc1-2 | inconclusive: 23.1 µM [falling, single point] | 
COc1ccccc1NC(=O)CN1CCSc2ccccc21 | inconclusive: 8.91 µM [falling, partial curve] | 
CCOc1ccccc1N/C(=N/c1nc(C)cc(C)n1)NC(=O)Nc1ccc(Cl)c(Cl)c1 |  | inconclusive: 1.6%
Cn1cccc1C(=O)NC(=O)COC(=O)c1cc(S(=O)(=O)N2CCCCC2)ccc1Cl | inconclusive: 2 µM [falling, full curve] | 
